Taken from: PubChem BioAssay AID602196 (INSERM, 2012)
Screen: 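Modifiers of cisplatin sensitivity in A549 cells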. System: human A549 lung cancer cells. Reagent: siRNA pair against human genes. Duration: 48 h transfection before cisplatin; time from cisplatin to read-out not stated. Challenge: cisplatin at a dose killing half of control-siRNA cells; exact dose and duration not given. Detection: 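Shift in cisplatin death relative to control siRNA, from -50 (all cells die) to +50 (no cells die); siRNAs harmful on their own scored 0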. Reading the numbers: two-siRNA summed score (-2 to +2): higher = both siRNAs protect from cisplatin killing; -2 means both sensitise. Active means: 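siRNAs harmful alone (LDH or WST-1) get 0; others get +1 for less and -1 for more cisplatin killing; genes are active when the two siRNAs give the same sign, summing to ±2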. Meaning of the calls: active = both siRNAs shift cisplatin killing the same way; inactive = no consistent shift, or siRNA harmful alone.
The whole screen tested about 23,000 reagents; below is a random part of them. In the full data, 455 (2%) are marked active. 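Active includes both protection and sensitisation; some change values fall well beyond the stated -50 to +50 range.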 Entries without a mark were called inactive. Further read-outs or replicates are left out here. Not stated in the record: the amount of reagent.

Target gene | two-siRNA summed score (-2 to +2)
LOC400847 | 0
LOC440140 | 0
B3GALT6 | 0
FNIP1 | 0
LINC01343 | 0
NOC2L | 0
CTR9 | 0
RRP9 | 0
R3HDM2 | 0
EMP2P1 | 0
LOC440046 | 0
TRNT1 | 0
LOC442313 | 0
LOC402693 | 0
TNR | 0
PHF19 | 0
UCP1 | 0
SLC25A29 | 0
LOC389267 | 0
TRIM9 | 0
MYH13 | 1
LOC441012 | 0
IFNL2 | 1
LOC222701 | 0

Continued (4 carried over from the part before).
Target gene | two-siRNA summed score (-2 to +2)
MYH13 | 1
LOC441012 | 0
IFNL2 | 1
LOC222701 | 0
VAT1 | -1
EBF2 | 0
CLEC17A | 0
CBX3 | 0
PTGR2 | 0
CCNB2 | 0
GCA | -1
SFXN2 | 0
RAB42 | 0
LOC196346 | 0
PRKAG1 | 0
FAM81B | 0
LOC388732 | 0
LOC390980 | 0
DOCK8-AS1 | 0
